{"source": "patent US5449773A", "about": "“Platinum complexes of sucrose derivatives” (priority 1995, dated 1995)", "origin": "cited, not measured here", "test_system": "cellular DNA", "details": "intracellular, after hydrolysis; listed as cisplatin; cited from earlier work"}
{"smiles": "N.N.[Cl][Pt][Cl]", "note": "[Sample No. 1, Cis-dichlorodiamine platinum]", "values": [{"measurement": "fraction bound to cellular DNA", "result": "about one percent"}]}
